PubChem BioAssay AID1508597, Cure First, 2020

- Purpose: 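Knock-downs altering ovarian cancer cell survival with or without PARP inhibitor rucaparib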 (primary screen)
- Cells: human ovarian carcinoma lines grown from tumours: OCI-P5x (papillary serous) and OCI-C5x (clear cell)
- Reagent: siRNA pool against human genes, 1.25 pmol siRNA per well
- Duration: 72 h or 96 h, depending on the cell culture
- Conditions: rucaparib 20 µM (about IC30) or vehicle, present until read-out
- Rucaparib or vehicle: Rucaparib
- Cell line: OCI-C5x (clear cell)
- Measurement: 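ATP luminescence measured at 72 or 96 h according to the culture, then normalised and expressed as percent viability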
- Direction: viability, normalised: higher = more viable cells remaining
- Rule for the call: 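a well counts as a hit if its normalised viability is under 80 percent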
- Calls: active = viability under 80%; inactive = viability 80% or more
Shown is a random part of the about 2,100 reagents, under one of the conditions tested. 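Calls flag viability under 80% in either arm, not effects specific to rucaparib; the reference for percent is not stated.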 A reagent listed more than once was tested more than once; the source does not tell the runs apart. Not given: the 100% reference.

gene knocked down	technical replicate	viability, normalised (%)	Outcome
HASPIN	1	32.1	active
HASPIN	1	39.4	active
HASPIN	1	52.3	active
HASPIN	2	59.7	active
HASPIN	2	44.3	active
HASPIN	2	52.7	active
HASPIN	3	59.1	active
HASPIN	3	58.8	active
HASPIN	3	42.2	active
AGRN	1	45.3	active
AGRN	2	42.7	active
AGRN	3	50	active
ZNF623	1	63.5	active
ZNF623	2	65.2	active
ZNF623	3	59.5	active
SUZ12	1	71.4	active
SUZ12	2	65.9	active
SUZ12	3	48.7	active
CCT2	1	45.4	active
CCT2	2	49.7	active
CCT2	3	39.4	active
LRWD1	1	37.4	active
LRWD1	2	39.2	active
LRWD1	3	42.5	active
NOTCH1	1	50.7	active
NOTCH1	2	43.4	active
NOTCH1	3	41.9	active
OGA	1	44.6	active
OGA	2	31.8	active
OGA	3	37.1	active
BARD1	1	45.1	active
BARD1	2	60.9	active
BARD1	3	65.1	active
GDAP2	1	34.5	active
GDAP2	2	24	active
GDAP2	3	43.2	active
BORA	1	50.8	active
BORA	2	29.7	active
BORA	3	45.6	active
HUS1	1	71.2	active
HUS1	2	80.4	inactive
HUS1	3	68.6	active
ANKK1	1	43.5	active
ANKK1	2	24.3	active
ANKK1	3	40.7	active
HIRA	1	65.2	active
HIRA	2	56.8	active
HIRA	3	55.7	active
RECQL5	1	104	inactive
RECQL5	1	39.6	active
RECQL5	2	84.7	inactive
RECQL5	2	50.9	active
RECQL5	3	102	inactive
RECQL5	3	39	active
JARID2	1	40.2	active
JARID2	2	36.2	active
JARID2	3	33.1	active
